# Measurements from patent US20220079912A1, “ANTICANCER FORMULATION” (University of Mississippi, priority 2018, published 2022).
# At least one compound was matched to its structure with a doubt left.
# Columns and labels:
# [1] = test system: TXNIP protein levels; assay: Western blot of TXNIP protein, T98G cell line; type: cell-based, human; conditions: FIG. 15, FIG. 17
# Source text: (§1) AMPK activation has been previously shown to phosphorylate and cause the degradation of TXNIP during energy stress (13).
# [2] = test system: TXNIP protein levels; assay: Western blot of TXNIP protein, MDA-MB-231 cell line; type: cell-based, human; conditions: FIG. 16, FIG. 18
# Source text: as §1
# [3] = GH 8 μM 6 hrs or 3 hrs, 2-DG 25 mM, OXA 25 mM, BPX 25 μM, DCA 25 mM, 6 hr
smiles,measurement,setting,value
"NC(=O)C(=O)O [OXA, oxamate]","TXNIP protein levels, in combination with Ph",[1],reduced TXNIP protein levels
same,"TXNIP protein levels, agent alone",[1]; [3],do not substantially reduce TXNIP protein levels
same,"TXNIP protein levels, in combination with Ph",[2],reduced TXNIP protein levels
same,"TXNIP protein levels, agent alone",[2]; [3],do not substantially reduce TXNIP protein levels
